# Screening data, single-dose tests

Protein sequences, listed by entry. Tags and fused reporters are not part of them. Residues count along the entry.
UniProt P9WNZ1, whole entry: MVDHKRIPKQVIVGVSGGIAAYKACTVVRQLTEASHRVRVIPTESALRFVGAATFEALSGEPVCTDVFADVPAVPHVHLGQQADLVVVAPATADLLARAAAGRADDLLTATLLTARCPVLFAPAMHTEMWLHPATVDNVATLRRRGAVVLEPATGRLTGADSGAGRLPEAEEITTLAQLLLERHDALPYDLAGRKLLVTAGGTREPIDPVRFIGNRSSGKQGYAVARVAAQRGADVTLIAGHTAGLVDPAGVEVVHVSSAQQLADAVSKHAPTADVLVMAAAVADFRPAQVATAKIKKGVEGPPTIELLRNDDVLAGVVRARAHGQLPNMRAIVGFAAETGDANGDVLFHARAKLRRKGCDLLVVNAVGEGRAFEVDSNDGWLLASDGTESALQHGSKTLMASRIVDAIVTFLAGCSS
UniProt Q8IDJ8, 1-583: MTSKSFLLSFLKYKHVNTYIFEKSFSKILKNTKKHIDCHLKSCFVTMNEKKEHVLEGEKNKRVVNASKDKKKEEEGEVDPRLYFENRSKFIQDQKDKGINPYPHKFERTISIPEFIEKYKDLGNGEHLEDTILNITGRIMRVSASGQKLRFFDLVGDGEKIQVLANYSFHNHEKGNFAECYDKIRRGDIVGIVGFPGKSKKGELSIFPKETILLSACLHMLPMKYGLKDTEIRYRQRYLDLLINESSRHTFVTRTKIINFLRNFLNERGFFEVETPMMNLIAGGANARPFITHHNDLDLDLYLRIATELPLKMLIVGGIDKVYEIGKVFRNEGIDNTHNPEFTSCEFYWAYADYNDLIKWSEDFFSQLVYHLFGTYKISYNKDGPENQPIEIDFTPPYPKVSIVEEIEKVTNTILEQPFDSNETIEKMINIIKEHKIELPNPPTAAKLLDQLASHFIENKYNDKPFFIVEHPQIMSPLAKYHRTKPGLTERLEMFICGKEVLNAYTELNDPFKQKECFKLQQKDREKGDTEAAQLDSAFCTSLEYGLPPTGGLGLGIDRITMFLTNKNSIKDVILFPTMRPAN
UniProt P9WFT3, whole entry: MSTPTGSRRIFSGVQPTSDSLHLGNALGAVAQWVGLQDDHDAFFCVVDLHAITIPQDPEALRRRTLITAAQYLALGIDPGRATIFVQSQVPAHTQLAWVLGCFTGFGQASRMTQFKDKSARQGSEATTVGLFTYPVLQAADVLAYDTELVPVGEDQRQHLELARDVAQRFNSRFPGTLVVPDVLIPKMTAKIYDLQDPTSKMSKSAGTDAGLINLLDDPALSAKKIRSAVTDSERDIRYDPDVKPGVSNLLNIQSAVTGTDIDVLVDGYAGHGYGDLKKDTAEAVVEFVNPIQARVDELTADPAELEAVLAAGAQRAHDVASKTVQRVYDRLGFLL
UniProt I6X8D2, whole entry: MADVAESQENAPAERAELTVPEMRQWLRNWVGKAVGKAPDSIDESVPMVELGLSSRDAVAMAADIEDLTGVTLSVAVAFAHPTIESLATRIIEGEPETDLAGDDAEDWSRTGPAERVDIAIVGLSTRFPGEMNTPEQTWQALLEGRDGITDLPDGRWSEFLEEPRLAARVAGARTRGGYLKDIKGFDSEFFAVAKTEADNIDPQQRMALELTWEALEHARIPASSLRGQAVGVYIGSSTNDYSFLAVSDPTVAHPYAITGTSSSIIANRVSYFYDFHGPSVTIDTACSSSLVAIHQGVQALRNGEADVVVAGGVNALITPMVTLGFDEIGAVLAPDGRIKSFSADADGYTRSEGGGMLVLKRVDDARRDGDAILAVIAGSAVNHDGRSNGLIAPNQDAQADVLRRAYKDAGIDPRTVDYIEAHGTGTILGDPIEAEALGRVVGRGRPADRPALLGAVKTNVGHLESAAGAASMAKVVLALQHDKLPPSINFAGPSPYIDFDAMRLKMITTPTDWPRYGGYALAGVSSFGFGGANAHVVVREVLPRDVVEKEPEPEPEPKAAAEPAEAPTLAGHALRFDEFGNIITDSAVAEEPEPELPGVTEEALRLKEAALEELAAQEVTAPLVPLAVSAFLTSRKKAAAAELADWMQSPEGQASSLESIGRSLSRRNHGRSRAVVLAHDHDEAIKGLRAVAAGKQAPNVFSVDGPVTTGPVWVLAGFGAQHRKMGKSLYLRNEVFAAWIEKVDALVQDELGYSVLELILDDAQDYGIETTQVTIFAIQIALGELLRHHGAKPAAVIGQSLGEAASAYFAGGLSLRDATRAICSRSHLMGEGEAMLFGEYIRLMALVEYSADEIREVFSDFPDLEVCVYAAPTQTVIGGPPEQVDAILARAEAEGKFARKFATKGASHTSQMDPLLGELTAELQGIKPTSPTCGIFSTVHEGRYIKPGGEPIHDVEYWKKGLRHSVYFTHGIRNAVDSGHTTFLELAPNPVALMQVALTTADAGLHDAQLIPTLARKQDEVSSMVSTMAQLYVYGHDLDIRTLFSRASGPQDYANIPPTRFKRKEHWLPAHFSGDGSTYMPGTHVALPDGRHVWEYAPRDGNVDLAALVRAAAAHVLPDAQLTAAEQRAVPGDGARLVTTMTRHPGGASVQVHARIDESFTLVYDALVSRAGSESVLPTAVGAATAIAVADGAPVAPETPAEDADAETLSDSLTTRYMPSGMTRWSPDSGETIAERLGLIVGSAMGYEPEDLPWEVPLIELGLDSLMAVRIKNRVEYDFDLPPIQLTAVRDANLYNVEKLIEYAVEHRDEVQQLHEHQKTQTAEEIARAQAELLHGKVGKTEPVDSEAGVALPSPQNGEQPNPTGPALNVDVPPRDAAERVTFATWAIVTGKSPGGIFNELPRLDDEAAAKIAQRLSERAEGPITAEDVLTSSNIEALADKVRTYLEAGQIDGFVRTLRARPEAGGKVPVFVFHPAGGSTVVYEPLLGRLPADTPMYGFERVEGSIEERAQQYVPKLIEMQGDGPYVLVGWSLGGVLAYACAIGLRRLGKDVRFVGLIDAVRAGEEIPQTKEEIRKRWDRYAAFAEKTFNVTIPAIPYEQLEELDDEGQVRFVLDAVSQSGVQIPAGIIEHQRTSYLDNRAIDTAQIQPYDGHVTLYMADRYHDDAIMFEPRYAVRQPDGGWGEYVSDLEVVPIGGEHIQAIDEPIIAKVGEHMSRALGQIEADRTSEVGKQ

Each number is a percent effect as filed. How 0% and 100% were set is not recorded. Most values in the screen are low, and negative values occur. This is an unselected part of the compounds tested. A dash means the value is not listed here; it may have been measured.

CoaBC: 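Enzyme assay of CoaBC with a phosphate dye (Biomol Green) read at 650 nm. Target: Coenzyme A biosynthesis protein CoaBC, Mycobacterium tuberculosis (UniProt P9WNZ1). Compounds at 30 µM. Direction is inferred from only a few compounds that gave an IC50; most scored high, so higher reads as stronger inhibition. Most strong results did not repeat in a second test. Size under these conditions: about 67,000 compounds, about 40 of them at 50% or above in at least one test.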
PfKRS1: 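Enzyme assay of the cytosolic lysyl-tRNA synthetase in 384-well plates, read by luminescence. Target: Lysine-tRNA ligase, Plasmodium falciparum 3D7 (UniProt Q8IDJ8). Compounds at 30 µM. Higher reads as stronger inhibition, judged from the few compounds that gave an IC50. About 69,000 compounds were tested under these conditions; 0.071% (about 49) showed 50% or more at least once.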
Toxoplasma: 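Assay of Toxoplasma gondii numbers, read through their beta-galactosidase reporter with a colour substrate. Compounds at 10 µM. Higher reads as fewer parasites (inferred from which compounds were picked for retests). Of about 67,000 compounds tested this way, about 260 (0.38%) reached 50% or more in at least one test.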
MtTrpRS: 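Enzyme assay of tryptophanyl-tRNA synthetase; the read-out is not stated. Target: Tryptophan-tRNA ligase, Mycobacterium tuberculosis (UniProt P9WFT3). Tested at 10 µM. Higher most likely means stronger inhibition; the record gives no direction and few retests gave an IC50. About 65,000 compounds were tested under these conditions; 0.098% (about 64) showed 50% or more at least once.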
Pks13 thioesterase: 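Polyketide synthase Pks13, Mycobacterium tuberculosis (UniProt I6X8D2). Enzyme assay of the thioesterase domain of polyketide synthase 13; the read-out is not stated. Tested at 30 µM. The record gives no direction; the compounds picked for IC50 retests had high values, so higher reads as stronger inhibition. Of about 67,000 compounds tested this way, about 300 (0.46%) reached 50% or more in at least one test.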

structure,CoaBC,PfKRS1,Toxoplasma,MtTrpRS,Pks13 thioesterase
O=C1COc2cc(C(=O)N3CCCC(n4ccnc4)C3)ccc2N1 (stereo not given),-51.21%,12.44%,-7.249%,-2.407%,-29.3%
Cc1ccc(NC(=O)c2cc(S(=O)(=O)N3CCCCC3)c[nH]2)cc1F,-2.408%,-3.329%,-0.7761%,-4.079%,-8.081%
CCOCc1cnc2n1CCN(Cc1nc(C)cs1)C2C (stereo not given),5.092%,3.149%,-,2.344%,4.263%
CC(=O)c1cccc(OCCCC(=O)N(C)CCC(F)(F)F)c1,4.808%,1.748%,-4.551%,3.086%,-6.824%
Cc1nc(CC(C)C)sc1C(=O)N1CCC1,-0.3984%,-1.781%,4.012%,1.051%,-11.23%
Cc1cccc(CC(=O)N2CCCCC2CN)c1 (stereo not given),-9.234%,0.9669%,-,0.3112%,-
CCc1nc(CN2CCCN(C(=O)CC(C)OC)CC2)cs1 (stereo not given),-11.59%,-1.575%,-10.03%,26.74%,-16.25%
CC(=O)c1cccc(OCCCC(=O)NC(C#N)CC(C)C)c1 (stereo not given),-1.098%,-1.115%,-0.9766%,4.636%,-4.632%
CCC(=O)N1CCCCC1c1nc(O)c2c(n1)CN(S(C)(=O)=O)CC2 (stereo not given),-1.196%,-0.6407%,12.82%,3.125%,-0.5021%
N#Cc1ccc(C(=O)N2CCn3c(Cn4cccn4)cnc3C2)cc1,0.6345%,-1.044%,-,1.994%,-8.072%
Cc1cccc(CN2C(=O)CCC23CCN(C(=O)c2ccco2)CC3)n1.O=C(O)C(F)(F)F,-,-,8.602%,-,-
CCCc1nc(C)c(C(=O)NCCNc2ncccc2C#N)s1,-0.1164%,-1.235%,1.29%,-4.096%,20.18%
COCC(=O)N1CC[C@@H](OCC2CC2)[C@@H]1Cc1cccnc1.O=C(O)C(F)(F)F,-,-,3.448%,-,-
Cc1cc(CN(C)C(=O)c2ccc(Cl)c(S(C)(=O)=O)c2)no1,4.302%,6.113%,12.54%,0.7601%,-15.83%
COc1c(C)cnc(CN2CCCCC2Cn2nc(C)nc2C)c1C (stereo not given),-0.2571%,9.777%,-,2.911%,-35.44%
Cc1cc(C2CCC2)nc(N2CC(n3cccn3)C2)n1,4.819%,1.167%,-12.31%,3.913%,-6.326%
[H][C@@]12CN(S(C)(=O)=O)C[C@]1(C(=O)NC)CCC21CCN(C(=O)C(C)C)CC1,-,-,0.8912%,-,-
Cc1ccc(C(CNC(=O)Cc2nc3ncccn3n2)N(C)C)cc1 (stereo not given),-22.98%,6.708%,-10.08%,-9.564%,-13.36%
CC(=O)Nc1ccc(Cl)c(C(=O)N(C)Cc2nc(C)c[nH]2)c1,0.2404%,1.33%,-6.792%,2.283%,-3.184%
CC(C)(C)c1cnc(CN2CCC(NC(=O)Nc3ccccc3)CC2)o1,-2.823%,-4.328%,-3.424%,6.549%,-9.004%
CN(CCO)C[C@@H]1CN(C2CCN(c3ccccc3Cl)CC2)C[C@@H]1CO,-46.12%,2.779%,-6.028%,-3.137%,-27.6%
COCCO[C@H]1CCN(Cc2ccsc2)[C@H]1Cc1cccnc1,-9.383%,-0.5325%,-,4.991%,-11.18%
COCC(=O)N1CCCN(c2ncnc3c2CCNCC3)CC1,-,0.82%,6.164%,-0.8256%,-34.64%
CN(CCCc1nccn1C)C(=O)C1CCN(C(=O)C2CCCC2)CC1,-4.141%,10.26%,-20.17%,-2.445%,-15.46%
CC(=O)NCC[C@H]1CC(C)(C)Oc2ccccc21,0.6024%,2.402%,10.16%,-,-5.686%
CCS(=O)(=O)N1CCCCC1c1nc(C)no1 (stereo not given),3.316%,9.865%,-34.6%,0.7638%,-9.459%
Cn1cc(C2=NOC(C(=O)NC3(c4cccc(F)c4)CCCC3)C2)cn1 (stereo not given),-4.067%,-1.338%,10.61%,-4.297%,-14%
Cn1c(C(=O)NC2CC2)nc2c1CCN(c1ncccn1)C2,-,4.232%,7.282%,0.7551%,-10.56%
O=C(O)C(F)(F)F.[H][C@@]12CN(C(=O)C3CCOCC3)C[C@@]1([H])N(Cc1ccncc1)C(=O)CO2,-,-,3.691%,-,-
Cc1cc(N(C)Cc2noc(C)n2)n2nc(C)c(C)c2n1,-0.8439%,5.101%,-4.129%,-7.204%,-7.958%
Cc1[nH]ccc1C(=O)N1CCC(c2nnc(Cn3cccn3)n2C)CC1,8.387%,3.693%,17.52%,0.5757%,-20.47%
COc1ccc(CN2CCCC2Cn2nc(C)nc2C)cc1F (stereo not given),-4.178%,-6.847%,-3.993%,-0.4873%,-12.48%
CCN1CC2(CCN(C(=O)C(C)Oc3ccc(F)cc3F)CC2)OC1=O (stereo not given),-0.2439%,5.955%,2.38%,-7.64%,16.77%
C/C(NC(=O)c1ccccn1)=C1\C(=O)C[C@@H]2[C@H]1C2(C)C,-0.241%,-1.144%,-,-4.984%,37.48%
Fc1cccc(N2CCCC3(C2)CN(c2ncccn2)CCO3)c1 (stereo not given),6.464%,2.71%,-,-3.859%,-2.936%
Cc1ccc(CN2CCn3cc(CNC(=O)c4cnn(C)c4)nc3C2)s1,1.921%,-1.188%,-,0.3856%,15.43%
Cn1cc(CCC(=O)N2C[C@H]3CC[C@@H]2CN(Cc2ccccc2)C3)cn1,-6.751%,4.092%,-,-2.085%,-9.268%
O=C1[C@H]2CN(CC3CC3)C[C@H]2CN1Cc1cccc(F)c1,5.656%,0.5239%,-,0.959%,-14.86%

Repeated from the top, 4 entries:

{"structure": "O=C1COc2cc(C(=O)N3CCCC(n4ccnc4)C3)ccc2N1", "stereo": "stereo not given", "CoaBC": -51.21, "PfKRS1": 12.44, "Toxoplasma": -7.249, "MtTrpRS": -2.407, "Pks13 thioesterase": -29.3}
{"structure": "Cc1ccc(NC(=O)c2cc(S(=O)(=O)N3CCCCC3)c[nH]2)cc1F", "CoaBC": -2.408, "PfKRS1": -3.329, "Toxoplasma": -0.7761, "MtTrpRS": -4.079, "Pks13 thioesterase": -8.081}
{"structure": "CCOCc1cnc2n1CCN(Cc1nc(C)cs1)C2C", "stereo": "stereo not given", "CoaBC": 5.092, "PfKRS1": 3.149, "MtTrpRS": 2.344, "Pks13 thioesterase": 4.263}
{"structure": "CC(=O)c1cccc(OCCCC(=O)N(C)CCC(F)(F)F)c1", "CoaBC": 4.808, "PfKRS1": 1.748, "Toxoplasma": -4.551, "MtTrpRS": 3.086, "Pks13 thioesterase": -6.824}

From ChEMBL document CHEMBL3988442, “University of Dundee, Small-Polar-MMV Screening Library” (2021).